Data from PubChem BioAssay AID651903 (Broad Institute, 2012).
About 1,100 (5%) of roughly 22,000 compounds were called active. This list was built around the results that the source calls inconclusive (neither active nor inactive); the mix of calls is not that of the screen. Rule as the data show it: active = activity score above about 55%; inconclusive = no clear call, values can overlap the other calls; inactive = below that.

Test: inhibitors of intracellular Trypanosoma cruzi, primary screen, cell-based, plate reader, single point, set 2 (AID 651903);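 also: parasites and compound incubated about four days before reading; 0% = median of neutral control wells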
Conditions: intracellular Trypanosoma cruzi in host cells, at 5.01 µM, stronger effect = higher value

Structure (SMILES)	activity score (inhibition)
O=C(NO)c1ccc(C(=O)N/N=C/c2ccc(Br)s2)cc1	inactive: -11.1%
C[C@@H]1CN([C@H](C)CO)C(=O)Cc2cc(N(C)C)ccc2O[C@H]1CN(C)Cc1ccc(-c2ccccc2)cc1	inconclusive: 57.5%
Cc1ccc(S(=O)(=O)N(C)C[C@@H]2Oc3ncc(C#Cc4ccc(F)cc4)cc3C(=O)N([C@H](C)CO)C[C@@H]2C)cc1	active: 58.9%
Cc1noc(C)c1S(=O)(=O)Nc1ccc2c(c1)C(=O)N([C@H](C)CO)C[C@H](C)[C@H](CN(C)Cc1ccc(Cl)c(Cl)c1)OCCCC[C@@H](C)O2	inconclusive: 55.2%
C[C@H](CO)N1C[C@H](C)[C@H](CN(C)S(=O)(=O)c2cccs2)Oc2ncc(-c3cc4ccccc4o3)cc2C1=O	active: 67.2%
C[C@@H]1CN([C@@H](C)CO)C(=O)c2cccc(NC(=O)c3ccc(-c4nccs4)cc3)c2O[C@H]1CN(C)Cc1ccc(C(F)(F)F)cc1	inconclusive: 55%
C[C@H]1CN([C@@H](C)CO)C(=O)Cc2cc(NC(=O)CCCCCC(=O)Nc3ccccc3N)ccc2O[C@@H]1CN(C)Cc1ccc(C(F)(F)F)cc1	inconclusive: 55.7%
C[C@H]1CN([C@@H](C)CO)C(=O)Cc2cc(NC(=O)NC3CCCCC3)ccc2O[C@H]1CN(C)Cc1ccc(-c2ccccc2)cc1	active: 67.3%
C[C@@H]1CN([C@@H](C)CO)C(=O)c2cc(N(C)C)ccc2O[C@@H]1CN(C)S(=O)(=O)c1cccs1	inactive: 2.01%
Cc1ccc(S(=O)(=O)N(C)C[C@H]2Oc3ccc(NS(=O)(=O)c4ccccc4)cc3CC(=O)N([C@H](C)CO)C[C@H]2C)cc1	active: 66.6%
O=C(CCCCC(=O)N/N=C\c1ccc2ccccc2n1)NO	inactive: 18.3%
C[C@H](CO)N1C[C@H](C)[C@H](CN(C)Cc2ccccc2)Oc2ncc(-c3cccc(C(F)(F)F)c3)cc2C1=O	inconclusive: 59.2%
CC(C)NC(=O)N(C)C[C@@H]1Oc2ccc(N(C)C)cc2CC(=O)N([C@H](C)CO)C[C@H]1C	inactive: -13.9%
C[C@H]1CN([C@@H](C)CO)C(=O)c2cccc(NC(=O)c3nc4ccccc4s3)c2O[C@@H]1CN(C)Cc1ccc2c(c1)OCO2	active: 59.1%
C[C@H](CO)N1C[C@H](C)[C@H](CN(C)CC2CC2)Oc2c(NC(=O)CCCCCC(=O)Nc3ccccc3N)cccc2C1=O	inactive: 9.61%
COc1ccc(S(=O)(=O)N(C)C[C@@H]2Oc3c(NC(=O)Nc4ccc(C(F)(F)F)cc4)cccc3C(=O)N([C@@H](C)CO)C[C@@H]2C)cc1	active: 60.9%
C[C@@H]1CCCCO[C@H](CN(C)C(=O)Cc2ccccc2)[C@@H](C)CN([C@H](C)CO)C(=O)c2cc(NC(=O)Nc3ccc(C(F)(F)F)cc3)ccc2O1	inconclusive: 62%
C[C@@H]1CN([C@@H](C)CO)C(=O)c2cc(NC(=O)Nc3cccc4ccccc34)ccc2O[C@@H]1CN(C)Cc1ccc(C(=O)Nc2ccccc2N)cc1	inactive: 24.8%
C[C@H](CO)N1C[C@H](C)[C@H](CN(C)C(=O)Nc2cccc3ccccc23)Oc2ccc(NC(=O)Nc3ccc(F)cc3)cc2CC1=O	inactive: -5.8%
C[C@H]1CN([C@@H](C)CO)C(=O)c2cc(NC(=O)Nc3ccc(C(F)(F)F)cc3)ccc2O[C@H]1CN(C)Cc1ccc(C(F)(F)F)cc1	inconclusive: 66.7%
C[C@H](CO)N1C[C@H](C)[C@@H](CN(C)CC2CC2)Oc2c(NC(=O)CCCCCC(=O)Nc3ccccc3N)cccc2C1=O	active: 72.4%
COc1ccc(S(=O)(=O)Nc2ccc3c(c2)CC(=O)N([C@@H](C)CO)C[C@@H](C)[C@@H](CN(C)S(=O)(=O)c2cccs2)O3)cc1	inconclusive: 56%
C[C@H]1CN([C@@H](C)CO)C(=O)Cc2cc(NC(=O)NC3CCCCC3)ccc2O[C@H]1CN(C)Cc1ccc(Oc2ccccc2)cc1	inconclusive: 59.6%
Cc1noc(C)c1S(=O)(=O)Nc1ccc2c(c1)C(=O)N([C@H](C)CO)C[C@H](C)[C@@H](CN(C)Cc1ccc(-c3ccccc3)cc1)O2	inconclusive: 55.1%
C[C@H](CO)N1C[C@H](C)[C@H](CN(C)C(=O)NC2CCCCC2)Oc2ncc(C#Cc3ccc(F)cc3)cc2C1=O	inactive: 33.5%
C[C@H](CO)N1C[C@H](C)[C@@H](CN(C)S(=O)(=O)c2ccc(F)cc2)Oc2c(NC(=O)c3nc4ccccc4s3)cccc2C1=O	inconclusive: 58.5%
COc1ccc(S(=O)(=O)Nc2ccc3c(c2)CC(=O)N([C@H](C)CO)C[C@@H](C)[C@@H](CN(C)S(=O)(=O)c2ccc(Cl)cc2)O3)cc1	active: 60%

Structure (SMILES)	activity score (inhibition)
C[C@@H]1CN([C@@H](C)CO)C(=O)Cc2cc(NS(=O)(=O)c3ccc(F)cc3)ccc2O[C@@H]1CN(C)Cc1ccc(C(F)(F)F)cc1	inconclusive: 56.5%
C[C@@H]1CN([C@H](C)CO)C(=O)Cc2cc(NC(=O)Cc3cn(C)c4ccccc34)ccc2O[C@@H]1CN(C)Cc1ccc2c(c1)OCO2	inconclusive: 58.8%
C[C@@H]1CN([C@@H](C)CO)C(=O)c2cccc(NC(=O)Nc3ccc(F)cc3)c2O[C@@H]1CN(C)C(=O)Nc1ccc(C(F)(F)F)cc1	inconclusive: 57.3%
C[C@@H]1CN([C@H](C)CO)C(=O)c2cc(NC(=O)C3CCCCC3)ccc2O[C@@H]1CN(C)Cc1ccc(Oc2ccccc2)cc1	inconclusive: 8.72%
C[C@@H]1CN([C@@H](C)CO)C(=O)c2cc(NC(=O)Nc3cccc4ccccc34)ccc2O[C@H]1CN(C)Cc1ccccc1	inconclusive: 55.6%
C[C@H]1CN([C@@H](C)CO)C(=O)c2cccc(NC(=O)NC3CCCCC3)c2O[C@@H]1CN(C)Cc1ccc(Cl)c(Cl)c1	inconclusive: 59.3%
Cc1noc(C)c1NC(=O)N(C)C[C@H]1Oc2ccc(NC(=O)C3CC3)cc2CC(=O)N([C@@H](C)CO)C[C@@H]1C	inactive: -10.4%
C[C@H]1CN([C@@H](C)CO)C(=O)Cc2cc(NC(=O)CCCCCC(=O)Nc3ccccc3N)ccc2O[C@H]1CN(C)Cc1ccc(-c2ccccc2)cc1	inconclusive: 58.6%
C[C@@H]1CN([C@@H](C)CO)C(=O)c2cc(NS(=O)(=O)c3ccc(F)cc3)ccc2O[C@@H]1CN(C)Cc1ccc(C(F)(F)F)cc1	inconclusive: 57.6%
COc1ccc(S(=O)(=O)Nc2ccc3c(c2)CC(=O)N([C@H](C)CO)C[C@@H](C)[C@H](CN(C)Cc2ccc(Oc4ccccc4)cc2)O3)cc1	inconclusive: 55.7%
C[C@H]1CN([C@@H](C)CO)C(=O)c2cccc(NC(=O)c3ccncc3)c2O[C@H]1CN(C)Cc1ccc2c(c1)OCO2	active: 62.3%
C[C@@H]1CCCCO[C@H](CN(C)Cc2ccc(C(F)(F)F)cc2)[C@@H](C)CN([C@H](C)CO)C(=O)c2cc(NC(=O)Nc3cccc4ccccc34)ccc2O1	active: 74%
C[C@@H]1CN([C@@H](C)CO)C(=O)Cc2cc(NC(=O)Nc3ccccc3)ccc2O[C@@H]1CN(C)Cc1ccc(C(F)(F)F)cc1	inconclusive: 58.5%
C[C@H]1CN([C@@H](C)CO)C(=O)c2cc(NC(=O)Nc3ccc(F)cc3)ccc2O[C@H]1CN(C)Cc1ccc(C(F)(F)F)cc1	inconclusive: 55.8%
C[C@@H]1CN([C@@H](C)CO)C(=O)Cc2cc(NC(=O)Nc3ccc(F)cc3)ccc2O[C@@H]1CN(C)Cc1ccccc1	inconclusive: 57.3%
Cc1noc(C)c1NC(=O)Nc1ccc2c(c1)C(=O)N([C@H](C)CO)C[C@H](C)[C@@H](CN(C)C(=O)Nc1cccc3ccccc13)O2	inactive: -23.5%
COc1cccc(S(=O)(=O)N(C)C[C@@H]2Oc3ncc(C#Cc4ccccc4)cc3C(=O)N([C@H](C)CO)C[C@@H]2C)c1	active: 61.6%
C[C@H](CO)N1C[C@H](C)[C@H](CN(C)Cc2ccc(-c3ccccc3)cc2)Oc2ccc(NC(=O)c3ccncc3)cc2CC1=O	inactive: 40.4%
C[C@H]1CN([C@@H](C)CO)C(=O)c2cc(NC(=O)Nc3ccccc3)ccc2O[C@H]1CN(C)Cc1ccc2c(c1)OCO2	active: 51.6%
C[C@H](CO)N1C[C@H](C)[C@H](CN(C)C(=O)Nc2ccc(C(F)(F)F)cc2)Oc2c(NC(=O)c3ccc(-c4nccs4)cc3)cccc2C1=O	inconclusive: 56.9%
C[C@H]1CN([C@@H](C)CO)C(=O)Cc2cc(NC(=O)Nc3ccccc3)ccc2O[C@H]1CN(C)Cc1ccc(-c2ccccc2)cc1	inactive: -17.6%
C[C@H]1CN([C@@H](C)CO)C(=O)c2cc(NS(=O)(=O)c3ccc(Cl)cc3)ccc2O[C@@H]1CN(C)Cc1ccc(Oc2ccccc2)cc1	inconclusive: 4.22%
C[C@H]1CN([C@@H](C)CO)C(=O)c2cccc(NC(=O)c3nc4ccccc4s3)c2O[C@H]1CN(C)Cc1ccc(Cl)c(Cl)c1	inconclusive: 57.1%
C[C@@H]1CN([C@@H](C)CO)C(=O)c2cc(NC(=O)Nc3cccc4ccccc34)ccc2O[C@@H]1CN(C)Cc1ccc(C(F)(F)F)cc1	active: 59.2%
Cc1ccc(S(=O)(=O)Nc2ccc3c(c2)C(=O)N([C@H](C)CO)C[C@H](C)[C@@H](CN(C)Cc2ccc(Cl)c(Cl)c2)OCCCC[C@@H](C)O3)cc1	inconclusive: 61.3%
C[C@H]1CN([C@@H](C)CO)C(=O)c2cc(NC(=O)C3CCCCC3)ccc2O[C@@H]1CN(C)C(=O)Nc1ccc(F)cc1	inactive: -3.78%
C[C@H]1CN([C@@H](C)CO)C(=O)Cc2cc(NC(=O)Nc3ccc4c(c3)OCO4)ccc2O[C@@H]1CN(C)CC1CCCCC1	inconclusive: 56.9%

A different layout for part of the listing above:
Structure (SMILES) | activity score (inhibition)
Cc1noc(C)c1NC(=O)N(C)C[C@H]1Oc2ccc(NC(=O)C3CC3)cc2CC(=O)N([C@@H](C)CO)C[C@@H]1C | inactive: -10.4%
C[C@H]1CN([C@@H](C)CO)C(=O)Cc2cc(NC(=O)CCCCCC(=O)Nc3ccccc3N)ccc2O[C@H]1CN(C)Cc1ccc(-c2ccccc2)cc1 | inconclusive: 58.6%
